{"source": "PubChem BioAssay AID1487", "about": "(National Center for Advancing Translational Sciences (NCATS), 2009)", "note": "What follows is the remainder of the data, with few or none of the hits. Inconclusive results are not listed. The source made the active and inactive calls. Calls follow the shape of the dose curve; as a rule, active = well fitted inhibition curve with a large enough effect in the signal ratio, with a control signal flat (not every such curve was filed as active); inconclusive = small, poorly fitted or top-dose-only effect, or effect the other way, or a change in a side signal; inactive = flat fitted curve, though single readings scatter; the % refers to the signal ratio."}
{"test": "qHTS Assay for Modulators of Lamin A Splicing; also: % is scaled to controls: 0 for no effect and ±100 for the full control effect", "details": "HeLa LMNA splicing GFP/RFP minigene ratio, 48 h; at 46.1 µM (top of the series)", "text": "NCGC Assay Overview: Hutchinson-Gilford Progeria Syndrome (HGPS) is a pediatric premature aging disease caused by a spontaneous mutation in the lamin A/C (LMNA) gene. The mutation activates a cryptic splice site in the LMNA pre-mRNA which results in production of a pre-lamin A protein that cannot be processed properly. The mutant protein accumulates in the nucleus and negatively affects numerous cellular functions. Correction of the splicing defect in HGPS patient cells using a targeted oligonucleotide (exo11) leads to reversal of the cellular disease phenotypes. […] References: Bowen, W. P.; Wylie, P. G. Application of Laser-Scanning Fluorescence Microplate Cytometry in High Content Screening. […]\nNCGC Assay Protocol Summary: Reagents/Controls: Stable clones expressing DsRed2 and lamin A-EGFP were generated by Cell and Molecular Technologies in S3 HeLa cells. […] The cells were counted and resuspended in Opti-MEM I (no phenol red; Gibco), 2% FBS, 1% penicillin/ streptomycin (Gibco) at concentration of 120 cells/uL concentration. […] Following incubation the plates were read on the Acumen Explorer using the 488 nm laser. […] The ratio of the total object intensity in PMT1 (500-530 nm emission; GFP) over PMT3 (575-640 nm emission; RFP) was calculated for analysis. […]"}
{"compound": "CN1C2CCC1CC(OC(=O)C(O)c1ccccc1)C2", "note": "(stereo unspecified)", "ratio change, negative = inhibition": "inactive: -18.6%"}
